From patent publication US20070065875A1
Results are given in words; binding and its absence hold for the method and conditions named. Binding seen in cells or lysates may run through a third protein. Some entries that bind do so weakly or less than the wild type.

Chains of the proteins cited; added tags and fusions are not shown. Lines headed by an entry give the natural chain unless they say otherwise; changes in a name come on top.
UniProt P29350: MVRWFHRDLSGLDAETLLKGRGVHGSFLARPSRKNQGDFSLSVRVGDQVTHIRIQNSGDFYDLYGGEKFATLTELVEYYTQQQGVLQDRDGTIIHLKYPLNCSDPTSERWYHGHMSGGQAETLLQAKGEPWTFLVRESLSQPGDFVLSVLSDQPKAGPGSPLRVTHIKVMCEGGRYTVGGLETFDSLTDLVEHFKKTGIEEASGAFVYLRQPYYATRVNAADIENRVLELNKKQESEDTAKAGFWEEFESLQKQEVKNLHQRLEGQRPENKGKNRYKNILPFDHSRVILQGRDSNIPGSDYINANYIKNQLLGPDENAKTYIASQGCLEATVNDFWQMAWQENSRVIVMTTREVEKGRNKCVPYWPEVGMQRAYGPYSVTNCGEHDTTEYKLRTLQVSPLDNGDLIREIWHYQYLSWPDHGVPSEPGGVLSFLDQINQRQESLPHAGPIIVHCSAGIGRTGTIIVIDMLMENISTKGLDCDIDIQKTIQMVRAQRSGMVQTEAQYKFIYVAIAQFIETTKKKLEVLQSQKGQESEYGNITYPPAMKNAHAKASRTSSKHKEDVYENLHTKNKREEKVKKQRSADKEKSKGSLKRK
UniProt Q96DU3: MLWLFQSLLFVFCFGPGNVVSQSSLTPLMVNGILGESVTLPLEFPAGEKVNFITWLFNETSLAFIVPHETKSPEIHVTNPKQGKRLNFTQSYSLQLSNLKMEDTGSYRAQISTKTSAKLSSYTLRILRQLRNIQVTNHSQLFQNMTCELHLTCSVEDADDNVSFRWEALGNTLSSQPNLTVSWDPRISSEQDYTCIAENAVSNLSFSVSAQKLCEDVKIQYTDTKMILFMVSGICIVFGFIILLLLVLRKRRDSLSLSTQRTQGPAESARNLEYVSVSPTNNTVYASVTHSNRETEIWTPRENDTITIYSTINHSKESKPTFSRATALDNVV

What was measured:
[1] = target: SHP-1 (human) (UniProt P29350); experiment: co-immunoprecipitation from untreated NK cell lysates, anti-SHP-1 western blot
[2] = target: SHP-1 (human) (UniProt P29350); experiment: co-immunoprecipitation, result restated in the discussion

Substance: NTB-A (NK-T-B-antigen) (from UniProt Q96DU3 22-332) (receptor)
- binding [1]: binds
- binding [2]: binds
